PubChem BioAssay AID1224826 | NIAID | 2016
Purpose: 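Knock-downs that raise or lower Tnf reporter signal after endotoxin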 (primary screen). Cells: RAW264.7 G9 macrophages from mouse bearing reporters for p65 (GFP) and the Tnf promoter (mCherry). Knock-down reagent: siRNA pool against mouse genes, 100 nM. Duration: 16 h of LPS stimulation, after 2 days of siRNA transfection. Treatment: bacterial lipopolysaccharide (Salmonella minnesota R595), 10 ng/ml. Measured: 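Imaged Tnf reporter mCherry in nuclei, minus background, normalised per plate to the median and expressed as robust z-scores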. Reading the numbers: Tnf reporter robust z-score: higher = stronger Tnf promoter reporter signal after LPS. Call rule: 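Called active when robust z-score is at most -1.3, matching the median of the Tlr4 knock-down control, or over 3; control wells and wells with under 50 cells never active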. Meaning of the calls: active = Tnf reporter clearly lowered or raised; inactive = no clear change in Tnf reporter.
In all, the deposit lists about 17,000 reagents; this is a part drawn at random. Over the whole deposit, about 1,110 (6.6%) got an active call. 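Active means lowered or raised reporter signal; replicate intensities are raw and not normalised per plate.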 Not all columns of the deposit are shown.

Rbm18
- Tnf reporter robust z-score: -0.04
- fewer than 50 cells in well: enough cells in well
- call: inactive

Npc2
- Tnf reporter robust z-score: -0.3
- fewer than 50 cells in well: enough cells in well
- call: inactive

Def6
- Tnf reporter robust z-score: 0.01
- fewer than 50 cells in well: enough cells in well
- call: inactive

Pxn
- Tnf reporter robust z-score: 0.21
- fewer than 50 cells in well: enough cells in well
- call: inactive

Mmp23
- Tnf reporter robust z-score: 0.51
- fewer than 50 cells in well: enough cells in well
- call: inactive

Ces1c
- Tnf reporter robust z-score: -0.21
- fewer than 50 cells in well: enough cells in well
- call: inactive

Stx7
- Tnf reporter robust z-score: -0.24
- fewer than 50 cells in well: enough cells in well
- call: inactive

Pkp3
- Tnf reporter robust z-score: 0.15
- fewer than 50 cells in well: enough cells in well
- call: inactive

Parvg
- Tnf reporter robust z-score: 0.91
- fewer than 50 cells in well: enough cells in well
- call: inactive

Nav1
- Tnf reporter robust z-score: 0.95
- fewer than 50 cells in well: enough cells in well
- call: inactive

AU014748
- Tnf reporter robust z-score: -0.27
- fewer than 50 cells in well: enough cells in well
- call: inactive

Mtpn
- Tnf reporter robust z-score: -0.1
- fewer than 50 cells in well: enough cells in well
- call: inactive

Smurf2
- Tnf reporter robust z-score: 0.14
- fewer than 50 cells in well: enough cells in well
- call: inactive

Zfp947
- Tnf reporter robust z-score: 1.78
- fewer than 50 cells in well: enough cells in well
- call: inactive

Laid out differently: results already given.
gene knocked down | Tnf reporter robust z-score | fewer than 50 cells in well | call
Rbm18 | -0.04 | enough cells in well | inactive
Npc2 | -0.3 | enough cells in well | inactive

Continued:
Jup
- Tnf reporter robust z-score: 0.58
- fewer than 50 cells in well: enough cells in well
- call: inactive

Bcl2a1d
- Tnf reporter robust z-score: -0.73
- fewer than 50 cells in well: enough cells in well
- call: inactive

Or6k8
- Tnf reporter robust z-score: -1.13
- fewer than 50 cells in well: enough cells in well
- call: inactive

Hps1
- Tnf reporter robust z-score: 0.29
- fewer than 50 cells in well: enough cells in well
- call: inactive

Cog1
- Tnf reporter robust z-score: -0.11
- fewer than 50 cells in well: enough cells in well
- call: inactive

A630012P03Rik
- Tnf reporter robust z-score: 1.21
- fewer than 50 cells in well: enough cells in well
- call: inactive

Prkd3
- Tnf reporter robust z-score: 1.29
- fewer than 50 cells in well: enough cells in well
- call: inactive
